Laboratory results published in publication doi:10.1101/2025.05.13.653872.
No constants are given. Whether binding was seen depends on the method and setting. In cells and extracts the contact can be indirect. These calls come from enrichment with a bait or labelling near it, and not all partners need be listed.

Columns and labels:
[1] = target: 6xHis-PcrP overexpressed in P. aeruginosa ΔpcrP (P. aeruginosa PAO1) (UniProt Q9I040); test: affinity purification with mass spectrometry; 6xHis-PcrP overexpressed in ΔpcrP grown in BMM8 at 0 or 5 mM Ca2+; lysate (1 mg/ml) on HisPur Ni-NTA resin, 2 h at 4°C, washed with 10 mM Tris-HCl pH 7.5; LC-MS/MS; ΔpcrP as negative control
[2] = target: 3xFlag-PcrP overexpressed in P. aeruginosa ΔpcrP (P. aeruginosa PAO1) (UniProt Q9I040); test: affinity purification with mass spectrometry; 3xFlag-PcrP overexpressed in ΔpcrP grown in BMM8 (high Pi, 580 μM) or BMMH8 (low Pi, 50 μM) at 0 or 5 mM Ca2+; lysate (1 mg/ml) on ANTI-FLAG M2 magnetic beads, 2 h at 4°C, washed with 10 mM Tris-HCl pH 7.5; LC-MS/MS; ΔpcrP as negative control

| Binder | binding [1] | binding [2] |
| --- | --- | --- |
| PA1546 coproporphyrinogen III oxidase (protein, UniProt P77915 1-460) MLDTIRWDADLIRRYDLSGPRYTSYPTAVQFHEGIGPFDQLHALRDSRKAGHPLSLYVHIPFCANICYYCACNKVITKDRGRSAPYLARLVREIEIVSRHLSREQVVEQLHFGGGTPTFLSPGQLRELMSQLRTHLNLLDDDSGDYGIEIDPREADWSTMGLLRELGFNRVSLGVQDFDMEVQKAVNRMQTPEETRTIVEAARTLQYRSINLDLIYGLPKQTPDSFARTVDEVIALQPDRLSVFNYAHLPERFMPQRRINADDLPSPGQKLEMLQRTTEQLAAAGYRYIGMDHFALPDDELASAQEDGTLQRNFQGYTTHGHCDLVGLGVSAISQIGDLYSQNSSDINDYQTSLDNGQLAIRRGLHCNSDDRVRRAVIQQLICHFELAFEDIETEFGIDFRSYFAELWPDLERFAADGLIRLDAKGIDITSSGRLLVRSICMLFDRYLPSLNRQRFSRVI | binds | binds |
| PA2189 hypothetical protein (protein, UniProt Q9I1S6 1-184) MSKQHIIHFTGPINSSTCGNLINTCAKVLQQEAEELRINIATMGGECSYGFTLYNFLRALPVPIHTHNLGTVESMGNILFLAGERRSASAHSKFLFHPFHWTLHGAVDHARMAEYAMSLDYDLELYARIVAENTRDAPERLDIPRYLMAYPRILGPEDALACGLIHTVDDSPIPAAACQWSIHS | – | binds |
| PA4026 probable acetyltransferase (protein, UniProt Q9HX01 1-153) MRIVQATLEHLDLLAPLFVKYREFYGMLSYPESSRKFLEKRLRRKESVIYLALADEEDRLLGFCQLYPSFSSLSLKRVWILNDIYVAEEARRQLVADHLLQHAKQMARETHAVRMRVSTSVDNEVAQKVYESIGFREDQEFKNYTLPISDELS | – | binds |
| PA4518 hypothetical protein (protein, UniProt Q9HVQ4 1-141) MTGNGVSLVTLGVADLARSSLYYQALGWQPSSDGNEQVVFLKGRNLVLGLYGRSALAEDAQVEDRPTGFAAITLACNCASRDEVDRLFSAATAAGGQATKMPQEVFWGGYSGYVADPDGHLWEIAYNPFWPFDEQGNLVLP | – | binds |
| PA3155 UDP-2-acetamido-2-dideoxy-d-ribo-hex-3-uluronic acid transaminase, wbpE (protein, UniProt Q9HZ76 1-359) MIEFIDLKNQQARIKDKIDAGIQRVLRHGQYILGPEVTELEDRLADFVGAKYCISCANGTDALQIVQMALGVGPGDEVITPGFTYVATAETVALLGAKPVYVDIDPRTYNLDPQLLEAAITPRTKAIIPVSLYGQCADFDAINAIASKYGIPVIEDAAQSFGASYKGKRSCNLSTVACTSFFPSKPLGCYGDGGAIFTNDDELATAIRQIARHGQDRRYHHIRVGVNSRLDTLQAAILLPKLEIFEEEIALRQKVAAEYDLSLKQVGIGTPFIEVNNISVYAQYTVRMDNRESVQASLKAAGVPTAVHYPIPLNKQPAVADEKAKLPVGDKAATQVMSLPMHPYLDTASIKIICAALTN | – | binds |
| PA1833 probable oxidoreductase (protein, UniProt Q9I2R2 1-330) MAVFKALWVTEAPHGVYETQVVERDTGDLPAGDVLIRVQYSSLNYKDALSASGNRGVTRKYPHTPGIDAAGVVAESSVAEFAAGDEVIVTGYDLGMNTAGGFGQYIRVPAAWVIKRPQGLSLREAMILGTAGLTAALCVEKLERSGLRPDHGSVLVTGASGGVGSIAVELLAKLGYTVAAATGKLEQAEFLNRLGAKQILDRATVADGVDKPLLKEQWAGAVDTVGGDILFNVVKSLQYGGSVACCGLTAGAGFKASVLPFILRGVNLLGVDSVELPLVVKASMWDKLSLQWKLDNLEEVAREIALEELPGAINQILAGKLVGRVLVNLG | – | binds |
| PqsB (PA0997) (protein, UniProt Q9I4X2 1-283) MLIQAVGVNLPPSYVCLEGPLGGERPRAQGDEMLMQRLLPAVREALDEAAVKPEEIDLIVGLALSPDHLIENRDIMAPKIGHPLQKVLGANRAHVFDLTDSSLARALYVVDTLASDQGYRNVLVVRGESSQGLEVDSESGFALADGALALLCRPTGKAAFRRGALGGDPAQEWLPLSIPLNTDIRQVGDVKGHLNLPAQPGLPEAVRAGFTRLAGDFPQLNWVREEWFGQGRPDGRCLGPFELASQLRAAQRDRLDELLLISFDPFGMVVEGVTLELAGEAHA | binds | binds |
| PA3712 hypothetical protein (protein, UniProt Q9HXS9 1-231) MNTRGLLDQLLKSGQEMLQNKSGGKPGASGGGQLGSLLSGAGGGALAAGAIGLLLGNKKARKFGGKAITYGGLAALGVIAYKAYNNWQQQQNGAAPQAQPQTVDRLPEAQAEVHSHAILQAIVGAAKADGHIDERERQMIEGEVAKLTSDREVQGWLERELNKPLDPAEIARAASTPEIAAEMYLASLLMVDEESFMERSYLEELARQLRLEPSFKLELENQARQALQRLA | – | binds |
| PA3645 (3R)-hydroxymyristoyl-[acyl carrier protein] dehydratase (protein, UniProt Q9HXY7 1-146) MMDINEIREYLPHRYPFLLVDRVVELDIEGKRIRAYKNVSINEPFFNGHFPEHPIMPGVLIIEAMAQAAGILGFKMLDVKPADGTLYYFVGSDKLRFRQPVLPGDQLQLHAKFISVKRSIWKFDCHATVDDKPVCSAEIICAERKL | – | binds |
| PA4671 probable ribosomal protein L25 (protein, UniProt Q9HVC4 1-204) MVDFILNAQVRSDLGKGASRRLRRNAGLVPAVVYGGDKEPQSVTLELREIAKLLENEAAFSHVIALNVGGAKETVLIKALQRHPAKGFVMHADFLRVVADHKLTAHVPLHFINEEVAVGVKQAGGEISHTISEVEVSCLPKDLPEFIEVDMAKVELGQIVHLSDLKAPKGVELVQLAHGNDLAVANIHASRVVKEEGSEEGAAE | – | binds |
| PA0945 phosphoribosylaminoimidazole synthetase (protein, UniProt Q9I513 1-353) MSSKQPSLSYKDAGVDIDAGEALVERIKGVAKRTARPEVMGGLGGFGALCEIPAGYKQPVLVSGTDGVGTKLRLALNLNKHDSIGQDLVAMCVNDLVVCGAEPLFFLDYYATGKLNVDVAATVVTGIGAGCELAGCSLVGGETAEMPGMYEGEDYDLAGFCVGVVEKAEIIDGSRVQAGDALIALPSSGPHSNGYSLIRKIIEVSGADIAQVQLDGKPLADLLMAPTRIYVKPLLQLIKQTGAVKAMAHITGGGLLDNIPRVLPDNAQAVIDVASWNRPAVFDWLQEQGNVDETEMHRVLNCGVGMVICVAQSDAEKALEVLRAAGEQPWQIGRIETCGADAERVVLNNLKNH | – | binds |
| PA1585 2-oxoglutarate dehydrogenase (E1 subunit) (protein, UniProt Q9I3D3 1-943) MHESVMQRMWNSAHLSGGNAAYVEELYELYLHDPNAVPEEWRTYFQKLPADGNPAPDVSHSTVRDHFVLLAKNQRRAQPVSAGSVSSEHEKKQVEVLRLIHAYRLRGHQASTLDPLGLWQRPAPADLSIDHYGLTGADLDTTFRTGELYIGKEEATLREIVDSLKSTYCGTFGAEFMHIVDSEQRKWFLQRLESVRGRPGFSAEARAHLLERLTAAEGLEKYLGTKYPGTKRFGLEGGESLIPMVDEIIQRCGSYGAKEIVIGMAHRGRLNVLVNTLGKNPRDLFDEFEGKKIVELGSGDVKYHQGFSSNVMTSGGEVHLALAFNPSHLEIVSPVVEGSVRARQDRRKDSSGDKVVPISIHGDAAFAGQGVVMETFQMSQTRAYKTGGTIHLVINNQVGFTTSRQDDARSTEYATDVAKMIQAPIFHVNGDDPEAVLFVTQLAVDYRMQFKRDVVIDLVCYRRRGHNEADEPSGTQPLMYQQIAKQRTTRELYADALVNAGVLSAEQVQSKIDDYRDALDNGLHVVKSLVKEPNKELFVDWRPYLGHAWTARHDTRFDLKTLQELSSKMLEVPEGFVVQRQVSKIYEDRQKMAAGGLPINWGFAETLAYATLLFEGHPVRMTGQDVGRGTFSHRHAVLHNQKDDSVYVPLANLFDGQPRLDIYDSFLSEEAVLAFEYGFATTTPNSLVIWEAQFGDFANGAQVVIDQFITSGESKWGRLCGLTMLLPHGYEGQGPEHSSARLERYLQLCAEQNIQVCVPTTPAQVYHMLRRQVIRPLRKPLVVMTPKSLLRHKLAISTLEDLANGSFQTVIPEIDSLDPKKVDRVVLCSGKVYYDLLEKRRAEGREDTAIVRIEQLYPFPEDDLAEVLAPYKNLKHIVWCQEEPMNQGAWFCSQHHMRRVIAAHKKGLNLEYAGREGSAAPACGYASMHAEQQEKLLQDAFTV | – | binds |
| PA3720 hypothetical protein (protein, UniProt Q9HXS1 1-141) MNAPAKSLLDIDAFPLVQVREMPRELADVERWLEEVEALLAVERDFALVYPPLPQETAEGDQQARKRLVLWLKENRQRFVEHCRGILLSANGQPDNLADLQQLAPVLQAVYGPPVSVAPDLASARGMAKALLSGPATGMNW | binds | binds |
| PA2173 hypothetical protein (protein, UniProt Q9I1U2 1-116) MNEYLPTSTANGLPHNLQRGERLASIGAGLVLAGFGLARGGLPGACKAVAGGLLVSRGLSGHCHVKGLLNEPREELQLLREEVQHLTRRLQRLQERQRDDSRQDAALDAELPPNLP | – | binds |
| PA5049 50S ribosomal protein L31 (protein, UniProt Q9HUD0 1-71) MKADIHPTYEAIEATCSCGNVIKTRSTLCKPIHLDVCSECHPFYTGKQKVLDTGGRIDRFKQRFGVFGATK | – | binds |
| PA5457 methyltransferase (protein, UniProt Q9HTB3 1-287) MIRALLQRWRSRPAAASEPVSPRMCGLRDAVLDGWFRSETGELLAGFAIGAQDTLLDLGCGEGVATLFAARQGASVIFTDSEEDKVRSLAQQVEAVARRPFTGLVSDSDPLPLRDACADKLVCMEVLEHVANPARVMAELVRLGRPGAQYLLSVPDPVGEHLQQGIAPADYFRAPNHIHIFSRDDFARLVQDAGLVIEHRQASGFFWVMGMIFFWASERAAGRELGGAVRDRIQPPYPALMEDWARLWENLLARPDGLEIKHLLDHFMPKSQVIIARKPLDPGSSRT | binds | binds |
| PA5027 hypothetical protein (protein, UniProt Q9HUE2 1-271) MIRHLLVAHDLTPEADVALARAAQLARQHDARVSLLHVYDPGLSASAVKTVSAMLQLKRKEAGLDEDSAIHLFRGQPIDGILQQTRALEPDLLLMGAHHQKTFERFGNTTLDQVVRRSRVPVLLAVREADEPYRQALSALDFSQCACTALRQAYRLLPVEADLHALHVFESPDDGVLGLPRQNAAHLATQAGLIEQLLSDEQERLPGVGPQLSHEVVPGVLPYSLDAALKQRQPELLALGRHSRNALMQALLGNLAQRYLRQPSCDVLVTS | binds | binds |
